Some of the results follow. Hit calls seldom repeat between salt and free forms of one compound.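 In K562 cells expressing nanoluciferase-fused kinases, luminescence was recorded at 4 h intervals between 2 and 18 h, normalized as percent of control with DMSO at 100% and a positive control at 0%. A significant (2 sigma) signal drop marks a time point as decreased. The authors' rule for a hit is not shown and takes in more than the number of time points.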
How the values were obtained:
Test in all cases: kinase-Nluc reporter destabilization hit call (1 = scored as downregulated) (binary); higher = compound decreases kinase abundance
Conditions in all cases: K562; 2-18 h
BRAF_V600E = tested on: BRAF_V600E
BTK = BTK (UniProt Q06187)
CAMK2A = CAMK2A (UniProt Q9UQM7)
CAMK2G = CAMK2G (UniProt Q13555)
CDK10 = CDK10 (UniProt Q15131)
CDK2 = CDK2 (UniProt P24941)
CDK3 = CDK3 (UniProt Q00526)
CDK4 = CDK4 (UniProt P11802)
CDK5 = CDK5 (UniProt Q00535)
CDK6 = CDK6 (UniProt Q00534)
CDK7 = CDK7 (UniProt P50613)
CDK9 = CDK9 (UniProt P50750)
CHEK2 = CHEK2 (UniProt O96017)
CSF1R = CSF1R (UniProt P07333)
CSK = CSK (UniProt P41240)
CSNK1A1 = CSNK1A1 (UniProt P48729)
CSNK1D = CSNK1D (UniProt P48730)
DDR1 = DDR1 (UniProt Q08345)
DYRK1B = DYRK1B (UniProt Q9Y463)
DYRK2 = DYRK2 (UniProt Q92630)

Protein sequences, listed by entry. Tags and fused reporters are not part of them. Lines headed by an entry give the natural chain unless they say otherwise; changes in a name come on top.
UniProt Q06187: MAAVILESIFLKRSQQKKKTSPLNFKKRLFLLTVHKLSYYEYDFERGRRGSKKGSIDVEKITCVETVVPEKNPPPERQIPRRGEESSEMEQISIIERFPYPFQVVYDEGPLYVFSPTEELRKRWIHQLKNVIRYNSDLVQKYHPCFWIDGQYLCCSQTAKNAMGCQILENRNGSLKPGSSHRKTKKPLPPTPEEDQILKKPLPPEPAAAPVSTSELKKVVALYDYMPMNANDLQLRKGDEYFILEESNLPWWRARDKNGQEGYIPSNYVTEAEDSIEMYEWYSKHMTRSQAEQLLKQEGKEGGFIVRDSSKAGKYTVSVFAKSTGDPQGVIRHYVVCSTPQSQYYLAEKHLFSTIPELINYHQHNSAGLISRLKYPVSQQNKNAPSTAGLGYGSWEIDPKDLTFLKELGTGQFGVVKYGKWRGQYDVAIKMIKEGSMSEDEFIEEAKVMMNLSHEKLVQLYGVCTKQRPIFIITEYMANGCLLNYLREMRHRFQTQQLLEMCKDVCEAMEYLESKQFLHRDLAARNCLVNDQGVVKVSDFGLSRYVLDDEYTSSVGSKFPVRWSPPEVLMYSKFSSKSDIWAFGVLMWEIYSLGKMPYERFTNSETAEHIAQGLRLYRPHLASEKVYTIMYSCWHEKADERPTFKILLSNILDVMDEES
UniProt Q9UQM7, whole entry: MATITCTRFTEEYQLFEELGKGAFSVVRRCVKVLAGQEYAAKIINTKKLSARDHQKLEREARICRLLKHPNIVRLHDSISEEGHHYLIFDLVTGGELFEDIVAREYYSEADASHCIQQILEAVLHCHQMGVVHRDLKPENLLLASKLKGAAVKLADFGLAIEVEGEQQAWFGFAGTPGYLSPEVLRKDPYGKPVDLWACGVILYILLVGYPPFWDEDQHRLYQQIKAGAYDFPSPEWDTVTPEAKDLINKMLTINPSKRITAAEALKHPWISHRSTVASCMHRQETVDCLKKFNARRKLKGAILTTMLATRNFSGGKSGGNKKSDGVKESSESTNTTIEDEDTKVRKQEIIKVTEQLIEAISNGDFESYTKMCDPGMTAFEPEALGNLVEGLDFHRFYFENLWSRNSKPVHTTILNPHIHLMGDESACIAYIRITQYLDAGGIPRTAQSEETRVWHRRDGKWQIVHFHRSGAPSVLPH
UniProt Q15131: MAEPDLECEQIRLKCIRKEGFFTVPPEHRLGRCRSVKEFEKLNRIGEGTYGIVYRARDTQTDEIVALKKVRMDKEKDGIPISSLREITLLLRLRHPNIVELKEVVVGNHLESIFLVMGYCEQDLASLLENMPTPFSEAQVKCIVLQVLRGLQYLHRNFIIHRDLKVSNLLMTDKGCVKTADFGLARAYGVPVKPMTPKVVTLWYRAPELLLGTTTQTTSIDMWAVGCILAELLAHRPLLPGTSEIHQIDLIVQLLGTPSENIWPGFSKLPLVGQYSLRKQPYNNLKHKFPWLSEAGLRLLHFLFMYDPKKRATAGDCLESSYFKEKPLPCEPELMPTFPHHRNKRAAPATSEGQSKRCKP
UniProt P11802: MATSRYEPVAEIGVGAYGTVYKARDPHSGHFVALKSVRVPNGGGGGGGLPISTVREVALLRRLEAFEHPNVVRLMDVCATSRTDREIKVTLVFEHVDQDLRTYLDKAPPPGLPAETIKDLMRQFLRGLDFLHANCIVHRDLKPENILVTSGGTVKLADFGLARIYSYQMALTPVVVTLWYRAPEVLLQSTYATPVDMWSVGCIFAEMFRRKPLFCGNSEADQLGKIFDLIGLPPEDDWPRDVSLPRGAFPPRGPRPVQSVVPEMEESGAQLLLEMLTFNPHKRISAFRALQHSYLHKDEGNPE
UniProt Q00535, whole entry, looked up: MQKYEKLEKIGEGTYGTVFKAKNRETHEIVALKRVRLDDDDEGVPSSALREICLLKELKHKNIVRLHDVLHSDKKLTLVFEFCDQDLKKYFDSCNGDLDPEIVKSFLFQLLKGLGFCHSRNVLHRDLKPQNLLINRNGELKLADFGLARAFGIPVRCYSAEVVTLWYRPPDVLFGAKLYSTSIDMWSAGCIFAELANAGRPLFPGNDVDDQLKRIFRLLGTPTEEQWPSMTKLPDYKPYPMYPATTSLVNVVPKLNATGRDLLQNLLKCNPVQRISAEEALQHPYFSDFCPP
UniProt Q00534, whole entry: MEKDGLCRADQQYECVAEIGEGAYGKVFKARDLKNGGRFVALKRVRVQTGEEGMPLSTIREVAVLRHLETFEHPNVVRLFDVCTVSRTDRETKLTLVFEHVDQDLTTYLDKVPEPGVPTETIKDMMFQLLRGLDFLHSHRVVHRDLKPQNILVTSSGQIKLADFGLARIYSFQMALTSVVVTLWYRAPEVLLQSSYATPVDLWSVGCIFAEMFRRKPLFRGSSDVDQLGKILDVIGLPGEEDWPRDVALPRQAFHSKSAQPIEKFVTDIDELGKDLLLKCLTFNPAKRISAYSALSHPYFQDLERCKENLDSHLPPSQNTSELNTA
UniProt P50613: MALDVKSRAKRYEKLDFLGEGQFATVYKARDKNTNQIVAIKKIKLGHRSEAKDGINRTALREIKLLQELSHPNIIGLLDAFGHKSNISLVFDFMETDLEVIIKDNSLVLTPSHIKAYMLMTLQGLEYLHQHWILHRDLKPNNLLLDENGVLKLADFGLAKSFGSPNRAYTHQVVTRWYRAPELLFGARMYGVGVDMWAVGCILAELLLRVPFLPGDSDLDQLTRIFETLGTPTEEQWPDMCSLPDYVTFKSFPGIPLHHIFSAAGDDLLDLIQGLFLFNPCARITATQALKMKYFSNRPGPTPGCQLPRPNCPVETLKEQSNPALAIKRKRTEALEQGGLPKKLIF
UniProt O96017, whole entry: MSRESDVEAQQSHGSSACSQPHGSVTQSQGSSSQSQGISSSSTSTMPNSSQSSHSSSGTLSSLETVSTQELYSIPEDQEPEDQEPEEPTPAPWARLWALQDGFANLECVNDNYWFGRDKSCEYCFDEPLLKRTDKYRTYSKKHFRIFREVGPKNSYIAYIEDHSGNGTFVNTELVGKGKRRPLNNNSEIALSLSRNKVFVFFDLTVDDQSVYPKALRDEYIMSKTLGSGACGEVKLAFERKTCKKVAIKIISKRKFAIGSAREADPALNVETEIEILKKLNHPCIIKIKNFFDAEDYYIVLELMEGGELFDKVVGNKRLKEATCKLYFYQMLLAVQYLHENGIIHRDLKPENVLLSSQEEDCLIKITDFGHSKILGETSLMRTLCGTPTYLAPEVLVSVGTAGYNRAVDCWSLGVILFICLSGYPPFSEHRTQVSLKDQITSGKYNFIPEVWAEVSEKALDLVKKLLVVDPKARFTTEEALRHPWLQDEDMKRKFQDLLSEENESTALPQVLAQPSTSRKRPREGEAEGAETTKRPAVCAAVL
UniProt P07333, whole entry: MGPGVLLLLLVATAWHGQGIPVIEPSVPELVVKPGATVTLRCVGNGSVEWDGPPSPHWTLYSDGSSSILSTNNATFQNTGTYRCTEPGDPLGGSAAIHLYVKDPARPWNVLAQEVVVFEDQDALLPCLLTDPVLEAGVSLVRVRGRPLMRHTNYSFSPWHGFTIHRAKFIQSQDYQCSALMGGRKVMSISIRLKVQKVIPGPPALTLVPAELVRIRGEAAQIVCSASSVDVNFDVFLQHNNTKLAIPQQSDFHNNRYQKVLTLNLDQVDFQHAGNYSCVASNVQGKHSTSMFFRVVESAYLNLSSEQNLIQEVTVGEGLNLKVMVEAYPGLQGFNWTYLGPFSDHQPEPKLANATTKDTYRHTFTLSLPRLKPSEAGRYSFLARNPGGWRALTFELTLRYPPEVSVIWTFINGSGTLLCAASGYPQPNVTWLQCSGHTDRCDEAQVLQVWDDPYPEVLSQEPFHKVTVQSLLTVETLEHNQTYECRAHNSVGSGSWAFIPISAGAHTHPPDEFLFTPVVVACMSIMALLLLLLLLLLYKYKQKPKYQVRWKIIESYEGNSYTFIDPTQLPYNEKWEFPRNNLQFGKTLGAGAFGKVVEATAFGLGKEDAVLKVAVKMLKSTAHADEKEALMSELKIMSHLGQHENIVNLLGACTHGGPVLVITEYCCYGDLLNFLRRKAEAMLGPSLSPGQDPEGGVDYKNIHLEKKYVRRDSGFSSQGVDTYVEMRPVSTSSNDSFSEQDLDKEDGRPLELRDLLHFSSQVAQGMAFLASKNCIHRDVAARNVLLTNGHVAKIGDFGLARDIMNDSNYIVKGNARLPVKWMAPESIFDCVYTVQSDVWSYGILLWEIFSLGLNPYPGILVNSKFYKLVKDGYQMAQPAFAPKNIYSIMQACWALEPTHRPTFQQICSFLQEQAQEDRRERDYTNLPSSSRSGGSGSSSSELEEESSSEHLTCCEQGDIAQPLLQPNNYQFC
UniProt P48729: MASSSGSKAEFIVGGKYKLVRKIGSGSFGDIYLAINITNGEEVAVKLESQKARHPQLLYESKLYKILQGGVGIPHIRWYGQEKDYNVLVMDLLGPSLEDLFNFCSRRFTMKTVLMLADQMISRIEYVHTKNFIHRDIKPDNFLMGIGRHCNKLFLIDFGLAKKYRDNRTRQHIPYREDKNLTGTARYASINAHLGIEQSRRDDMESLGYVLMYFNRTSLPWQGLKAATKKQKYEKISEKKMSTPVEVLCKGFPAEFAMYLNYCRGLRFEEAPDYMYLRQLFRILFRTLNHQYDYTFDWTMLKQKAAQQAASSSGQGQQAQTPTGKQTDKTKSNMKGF
UniProt P48730: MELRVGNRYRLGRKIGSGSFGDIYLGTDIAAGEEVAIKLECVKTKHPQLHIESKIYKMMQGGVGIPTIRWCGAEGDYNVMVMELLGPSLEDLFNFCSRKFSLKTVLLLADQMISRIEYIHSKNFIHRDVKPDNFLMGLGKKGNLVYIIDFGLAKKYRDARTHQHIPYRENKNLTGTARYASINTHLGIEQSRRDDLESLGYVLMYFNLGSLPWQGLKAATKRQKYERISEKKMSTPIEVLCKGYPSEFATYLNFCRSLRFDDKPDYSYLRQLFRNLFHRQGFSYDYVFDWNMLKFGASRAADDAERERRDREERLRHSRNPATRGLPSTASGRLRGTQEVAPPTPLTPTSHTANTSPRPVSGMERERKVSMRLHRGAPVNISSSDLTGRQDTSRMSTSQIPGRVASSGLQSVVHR
UniProt Q08345: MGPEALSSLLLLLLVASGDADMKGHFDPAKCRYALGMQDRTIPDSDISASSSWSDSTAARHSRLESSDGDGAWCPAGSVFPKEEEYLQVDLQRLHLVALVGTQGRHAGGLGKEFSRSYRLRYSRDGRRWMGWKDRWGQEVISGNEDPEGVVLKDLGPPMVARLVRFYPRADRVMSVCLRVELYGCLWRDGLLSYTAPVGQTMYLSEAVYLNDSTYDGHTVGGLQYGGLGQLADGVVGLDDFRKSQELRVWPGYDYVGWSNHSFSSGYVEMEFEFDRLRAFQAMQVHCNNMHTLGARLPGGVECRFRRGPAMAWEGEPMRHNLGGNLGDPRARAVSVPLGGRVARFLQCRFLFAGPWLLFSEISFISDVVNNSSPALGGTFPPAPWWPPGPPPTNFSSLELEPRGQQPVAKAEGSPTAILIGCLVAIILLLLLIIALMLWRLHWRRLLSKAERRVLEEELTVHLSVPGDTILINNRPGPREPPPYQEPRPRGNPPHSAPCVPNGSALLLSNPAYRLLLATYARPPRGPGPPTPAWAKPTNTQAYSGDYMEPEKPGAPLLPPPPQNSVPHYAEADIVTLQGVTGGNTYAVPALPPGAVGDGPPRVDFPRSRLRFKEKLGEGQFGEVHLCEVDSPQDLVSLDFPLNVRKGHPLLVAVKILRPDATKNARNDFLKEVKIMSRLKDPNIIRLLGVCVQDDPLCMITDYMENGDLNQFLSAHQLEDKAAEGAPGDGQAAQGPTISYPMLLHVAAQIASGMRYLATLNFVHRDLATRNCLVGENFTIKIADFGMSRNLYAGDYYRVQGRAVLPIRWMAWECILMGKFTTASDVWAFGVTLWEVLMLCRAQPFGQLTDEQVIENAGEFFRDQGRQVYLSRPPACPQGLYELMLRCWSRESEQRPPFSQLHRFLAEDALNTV
UniProt Q9Y463, whole entry, looked up: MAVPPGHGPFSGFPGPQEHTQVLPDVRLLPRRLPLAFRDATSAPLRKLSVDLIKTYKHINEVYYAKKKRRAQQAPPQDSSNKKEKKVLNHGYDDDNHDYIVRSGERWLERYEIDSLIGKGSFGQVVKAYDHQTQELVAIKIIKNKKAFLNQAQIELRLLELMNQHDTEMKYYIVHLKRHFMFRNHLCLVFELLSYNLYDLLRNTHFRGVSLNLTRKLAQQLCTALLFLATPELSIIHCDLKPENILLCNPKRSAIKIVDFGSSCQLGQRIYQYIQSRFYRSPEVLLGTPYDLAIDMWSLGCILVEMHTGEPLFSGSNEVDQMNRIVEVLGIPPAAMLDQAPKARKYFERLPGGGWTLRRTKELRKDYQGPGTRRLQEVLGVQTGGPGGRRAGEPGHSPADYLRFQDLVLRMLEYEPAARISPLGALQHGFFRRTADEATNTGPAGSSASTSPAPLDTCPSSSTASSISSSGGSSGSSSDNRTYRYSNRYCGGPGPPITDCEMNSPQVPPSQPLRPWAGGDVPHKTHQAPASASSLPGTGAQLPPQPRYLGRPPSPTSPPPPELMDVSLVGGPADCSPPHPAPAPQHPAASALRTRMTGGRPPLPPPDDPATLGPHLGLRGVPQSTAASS

Measured: kinase-Nluc reporter destabilization hit call

O=Nc1c(-c2c(O)[nH]c3ccccc23)[nH]c2ccccc12 [Indirubin-3'-monoxime] (2.5 µM)
inactive: BRAF_V600E 0 | BTK 0 | CAMK2A 0 | CAMK2G 0 | CDK10 = 0 | CDK2 = 0 | CDK3 = 0 | CDK4 = 0 | CDK5 = 0 | CDK6 = 0 | CDK7 = 0 | CDK9 = 0 | CHEK2 = 0 | CSF1R 0 | CSK 0 | CSNK1A1 = 0 | CSNK1D 0 | DDR1 = 0 | DYRK1B 0 | DYRK2 = 0

O[C@H]1CC[C@H](Nc2ncc3nc(Nc4c(F)cc(F)cc4F)n([C@H]4CCOC4)c3n2)CC1 [Tanzisertib] (10 µM)
inactive: BRAF_V600E 0 | BTK 0 | CAMK2A 0 | CAMK2G 0 | CDK10 = 0 | CDK2 = 0 | CDK3 = 0 | CDK4 = 0 | CDK5 = 0 | CDK6 = 0 | CDK7 = 0 | CDK9 = 0 | CHEK2 = 0 | CSF1R 0 | CSK 0 | CSNK1A1 = 0 | CSNK1D 0 | DDR1 = 0 | DYRK1B 0 | DYRK2 = 0

CC[C@@H]1[C@H](F)C(=O)N[C@@H]1COc1nccc2cc(C(N)=O)c(OC)cc12 (10 µM)
inactive: BRAF_V600E 0 | BTK 0 | CAMK2A 0 | CAMK2G 0 | CDK10 = 0 | CDK2 = 0 | CDK3 = 0 | CDK4 = 0 | CDK5 = 0 | CDK6 = 0 | CDK7 = 0 | CDK9 = 0 | CHEK2 = 0 | CSF1R 0 | CSK 0 | CSNK1A1 = 0 | CSNK1D 0 | DDR1 = 0 | DYRK1B 0 | DYRK2 = 0

[O-][n+]1cccc(-c2nc3c(Cl)cccc3cc2[C@@H](Nc2ncnc3cccnc23)C(F)(F)F)c1 [Seletalisib] (10 µM)
inactive: BRAF_V600E 0 | BTK 0 | CAMK2A 0 | CAMK2G 0 | CDK10 = 0 | CDK2 = 0 | CDK3 = 0 | CDK4 = 0 | CDK5 = 0 | CDK6 = 0 | CDK7 = 0 | CDK9 = 0 | CHEK2 = 0 | CSF1R 0 | CSK 0 | CSNK1A1 = 0 | CSNK1D 0 | DDR1 = 0 | DYRK1B 0 | DYRK2 = 0

C[C@@H]1O[C@@H](OC[C@H]2O[C@@H](Oc3cc(O)c4c(c3)O[C@H](c3ccc(O)cc3)CC4=O)[C@H](O)[C@@H](O)[C@@H]2O)[C@H](O)[C@H](O)[C@H]1O [Narirutin] (10 µM)
inactive: BRAF_V600E 0 | BTK 0 | CAMK2A 0 | CAMK2G 0 | CDK10 = 0 | CDK2 = 0 | CDK3 = 0 | CDK4 = 0 | CDK5 = 0 | CDK6 = 0 | CDK7 = 0 | CDK9 = 0 | CHEK2 = 0 | CSF1R 0 | CSK 0 | CSNK1A1 = 0 | CSNK1D 0 | DDR1 = 0 | DYRK1B 0 | DYRK2 = 0

CC(C)Oc1ccc(-c2cnc3c(-c4ccnc5ccccc45)cnn3c2)cc1 (10 µM)
inactive: BRAF_V600E 0 | BTK 0 | CAMK2A 0 | CAMK2G 0 | CDK10 = 0 | CDK2 = 0 | CDK3 = 0 | CDK4 = 0 | CDK5 = 0 | CDK6 = 0 | CDK7 = 0 | CDK9 = 0 | CHEK2 = 0 | CSF1R 0 | CSK 0 | CSNK1A1 = 0 | CSNK1D 0 | DDR1 = 0 | DYRK1B 0 | DYRK2 = 0

COc1ccccc1/C=C1\C(=O)Nc2ccccc21 (10 µM)
inactive: BRAF_V600E 0 | BTK 0 | CAMK2A 0 | CAMK2G 0 | CDK10 = 0 | CDK2 = 0 | CDK3 = 0 | CDK4 = 0 | CDK5 = 0 | CDK6 = 0 | CDK7 = 0 | CDK9 = 0 | CHEK2 = 0 | CSF1R 0 | CSK 0 | CSNK1A1 = 0 | CSNK1D 0 | DDR1 = 0 | DYRK1B 0 | DYRK2 = 0

CCc1cccc(CC)c1NC(=O)c1nn(C)c2c1CCc1cnc(Nc3ccc(C(=O)NC4CCN(C)CC4)cc3OC(F)(F)F)nc1-2 (2 µM)
inactive: BRAF_V600E 0 | BTK 0 | CAMK2A 0 | CAMK2G 0 | CDK10 = 0 | CDK2 = 0 | CDK3 = 0 | CDK4 = 0 | CDK5 = 0 | CDK6 = 0 | CDK7 = 0 | CDK9 = 0 | CHEK2 = 0 | CSF1R 0 | CSK 0 | CSNK1A1 = 0 | CSNK1D 0 | DDR1 = 0 | DYRK1B 0 | DYRK2 = 0

C=CC(=O)Nc1cccc(Oc2nc(Nc3ccc(N4CCN(C)CC4)cc3)nc3ccoc23)c1 [Poseltinib] (10 µM)
inactive: BRAF_V600E 0 | BTK 0 | CAMK2A 0 | CAMK2G 0 | CDK10 = 0 | CDK2 = 0 | CDK3 = 0 | CDK4 = 0 | CDK5 = 0 | CDK6 = 0 | CDK7 = 0 | CDK9 = 0 | CHEK2 = 0 | CSF1R 0 | CSK 0 | CSNK1A1 = 0 | CSNK1D 0 | DDR1 = 0 | DYRK1B 0 | DYRK2 = 0

C=CC(=O)Nc1cccc(-n2c(=O)cc(C)c3cnc(Nc4ccc(OCCN(C)C)cc4OC)nc32)c1 (10 µM)
inactive: BRAF_V600E 0 | BTK 0 | CAMK2A 0 | CAMK2G 0 | CDK10 = 0 | CDK2 = 0 | CDK3 = 0 | CDK4 = 0 | CDK5 = 0 | CDK6 = 0 | CDK7 = 0 | CDK9 = 0 | CHEK2 = 0 | CSF1R 0 | CSK 0 | CSNK1A1 = 0 | CSNK1D 0 | DDR1 = 0 | DYRK1B 0 | DYRK2 = 0

O=[N+]([O-])c1ccc(Sc2cccc[n+]2[O-])c2nonc12 (2.5 µM)
inactive: BRAF_V600E 0 | BTK 0 | CAMK2A 0 | CAMK2G 0 | CDK10 = 0 | CDK2 = 0 | CDK3 = 0 | CDK4 = 0 | CDK5 = 0 | CDK6 = 0 | CDK7 = 0 | CDK9 = 0 | CHEK2 = 0 | CSF1R 0 | CSK 0 | CSNK1A1 = 0 | CSNK1D 0 | DDR1 = 0 | DYRK1B 0 | DYRK2 = 0

Cn1cc(-c2ccc3nnc(C(F)(F)c4ccc5ncccc5c4)n3n2)cn1 (10 µM)
inactive: BRAF_V600E 0 | BTK 0 | CAMK2A 0 | CAMK2G 0 | CDK10 = 0 | CDK2 = 0 | CDK3 = 0 | CDK4 = 0 | CDK5 = 0 | CDK6 = 0 | CDK7 = 0 | CDK9 = 0 | CHEK2 = 0 | CSF1R 0 | CSK 0 | CSNK1A1 = 0 | CSNK1D 0 | DDR1 = 0 | DYRK1B 0 | DYRK2 = 0

COc1cnccc1Nc1nc(-c2nn(Cc3c(F)cc(OCCO)cc3F)c3ccccc23)ncc1OC (10 µM)
inactive: BRAF_V600E 0 | BTK 0 | CAMK2A 0 | CAMK2G 0 | CDK10 = 0 | CDK2 = 0 | CDK3 = 0 | CDK4 = 0 | CDK5 = 0 | CDK6 = 0 | CDK7 = 0 | CDK9 = 0 | CHEK2 = 0 | CSF1R 0 | CSK 0 | CSNK1A1 = 0 | CSNK1D 0 | DDR1 = 0 | DYRK1B 0 | DYRK2 = 0

O=C(O)CCc1ccc(NCc2cccc(Oc3ccccc3)c2)cc1 (10 µM)
inactive: BRAF_V600E 0 | BTK 0 | CAMK2A 0 | CAMK2G 0 | CDK10 = 0 | CDK2 = 0 | CDK3 = 0 | CDK4 = 0 | CDK5 = 0 | CDK6 = 0 | CDK7 = 0 | CDK9 = 0 | CHEK2 = 0 | CSF1R 0 | CSK 0 | CSNK1A1 = 0 | CSNK1D 0 | DDR1 = 0 | DYRK1B 0 | DYRK2 = 0

COc1ccc(CN2C3CC2CN(c2ccc(-c4cc(OCC(C)(C)O)cn5ncc(C#N)c45)cn2)C3)cn1 [Selpercatinib] (10 µM)
inactive: BRAF_V600E 0 | BTK 0 | CAMK2A 0 | CAMK2G 0 | CDK10 = 0 | CDK2 = 0 | CDK3 = 0 | CDK4 = 0 | CDK5 = 0 | CDK7 = 0 | CDK9 = 0 | CHEK2 = 0 | CSF1R 0 | CSK 0 | CSNK1A1 = 0 | CSNK1D 0 | DDR1 = 0 | DYRK1B 0 | DYRK2 = 0
active: CDK6 = 1

CC(C)N(C)c1nc2cc(C(=O)O)ccc2nc1-c1ccc(F)cc1 (10 µM)
inactive: BRAF_V600E 0 | BTK 0 | CAMK2A 0 | CAMK2G 0 | CDK10 = 0 | CDK2 = 0 | CDK3 = 0 | CDK4 = 0 | CDK5 = 0 | CDK6 = 0 | CDK7 = 0 | CDK9 = 0 | CHEK2 = 0 | CSF1R 0 | CSK 0 | CSNK1A1 = 0 | CSNK1D 0 | DDR1 = 0 | DYRK1B 0 | DYRK2 = 0

C=CC(=O)N1CCC[C@@H](n2nc(C(=O)Nc3ccc(CC(=O)N(C)C)c(C)c3C)c3c(N)ncnc32)C1 (10 µM)
inactive: BRAF_V600E 0 | BTK 0 | CAMK2A 0 | CAMK2G 0 | CDK10 = 0 | CDK2 = 0 | CDK3 = 0 | CDK4 = 0 | CDK5 = 0 | CDK6 = 0 | CDK7 = 0 | CDK9 = 0 | CHEK2 = 0 | CSF1R 0 | CSK 0 | CSNK1A1 = 0 | CSNK1D 0 | DDR1 = 0 | DYRK1B 0 | DYRK2 = 0

A draw from above in order of molecular weight, rising.
CC(C)N(C)c1nc2cc(C(=O)O)ccc2nc1-c1ccc(F)cc1 (10 µM)
inactive: BRAF_V600E 0 | BTK 0 | CAMK2A 0 | CAMK2G 0 | CDK10 = 0 | CDK2 = 0 | CDK3 = 0 | CDK4 = 0 | CDK5 = 0 | CDK6 = 0 | CDK7 = 0 | CDK9 = 0 | CHEK2 = 0 | CSF1R 0 | CSK 0 | CSNK1A1 = 0 | CSNK1D 0 | DDR1 = 0 | DYRK1B 0 | DYRK2 = 0

O[C@H]1CC[C@H](Nc2ncc3nc(Nc4c(F)cc(F)cc4F)n([C@H]4CCOC4)c3n2)CC1 [Tanzisertib] (10 µM)
inactive: BRAF_V600E 0 | BTK 0 | CAMK2A 0 | CAMK2G 0 | CDK10 = 0 | CDK2 = 0 | CDK3 = 0 | CDK4 = 0 | CDK5 = 0 | CDK6 = 0 | CDK7 = 0 | CDK9 = 0 | CHEK2 = 0 | CSF1R 0 | CSK 0 | CSNK1A1 = 0 | CSNK1D 0 | DDR1 = 0 | DYRK1B 0 | DYRK2 = 0

C=CC(=O)N1CCC[C@@H](n2nc(C(=O)Nc3ccc(CC(=O)N(C)C)c(C)c3C)c3c(N)ncnc32)C1 (10 µM)
inactive: BRAF_V600E 0 | BTK 0 | CAMK2A 0 | CAMK2G 0 | CDK10 = 0 | CDK2 = 0 | CDK3 = 0 | CDK4 = 0 | CDK5 = 0 | CDK6 = 0 | CDK7 = 0 | CDK9 = 0 | CHEK2 = 0 | CSF1R 0 | CSK 0 | CSNK1A1 = 0 | CSNK1D 0 | DDR1 = 0 | DYRK1B 0 | DYRK2 = 0

COc1ccc(CN2C3CC2CN(c2ccc(-c4cc(OCC(C)(C)O)cn5ncc(C#N)c45)cn2)C3)cn1 [Selpercatinib] (10 µM)
inactive: BRAF_V600E 0 | BTK 0 | CAMK2A 0 | CAMK2G 0 | CDK10 = 0 | CDK2 = 0 | CDK3 = 0 | CDK4 = 0 | CDK5 = 0 | CDK7 = 0 | CDK9 = 0 | CHEK2 = 0 | CSF1R 0 | CSK 0 | CSNK1A1 = 0 | CSNK1D 0 | DDR1 = 0 | DYRK1B 0 | DYRK2 = 0
active: CDK6 = 1

Source: the supplement of paper PMC12823440, “Inhibitors supercharge kinase turnover through native proteolytic circuits” (Nature, 2025)
